Data as given in PMC9197408.
These are yes or no findings as the source states them, for the method shown. In cells and extracts the contact can be indirect. Some results given as binding are weak or reduced against the parent protein; the word gives no strength.

Sequences of proteins named here, by UniProt entry; tags and fusion partners are left off. A change or cut given only in a name is not applied to a line headed by its entry. A line that says so, or that is headed by a name, gives the form on record, which may keep a tag or linker.
UniProt Q9Z2X8: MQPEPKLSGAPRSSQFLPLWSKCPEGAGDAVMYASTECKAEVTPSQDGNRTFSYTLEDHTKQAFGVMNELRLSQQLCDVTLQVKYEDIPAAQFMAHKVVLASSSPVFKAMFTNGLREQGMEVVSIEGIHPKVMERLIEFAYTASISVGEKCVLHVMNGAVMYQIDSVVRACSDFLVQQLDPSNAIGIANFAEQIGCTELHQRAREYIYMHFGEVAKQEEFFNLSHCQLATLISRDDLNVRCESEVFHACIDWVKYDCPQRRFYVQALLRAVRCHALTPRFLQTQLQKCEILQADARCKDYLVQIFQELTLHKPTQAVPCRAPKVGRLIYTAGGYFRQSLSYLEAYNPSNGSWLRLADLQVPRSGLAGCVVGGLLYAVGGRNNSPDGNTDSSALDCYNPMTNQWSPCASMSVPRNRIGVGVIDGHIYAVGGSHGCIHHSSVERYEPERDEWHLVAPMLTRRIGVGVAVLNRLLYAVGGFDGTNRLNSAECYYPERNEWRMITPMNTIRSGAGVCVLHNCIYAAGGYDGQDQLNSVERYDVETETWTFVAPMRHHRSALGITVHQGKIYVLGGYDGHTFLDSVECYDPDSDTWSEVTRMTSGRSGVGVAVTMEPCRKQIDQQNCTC
His‐Keap1 NE/AA (Q9Z2X8, form named): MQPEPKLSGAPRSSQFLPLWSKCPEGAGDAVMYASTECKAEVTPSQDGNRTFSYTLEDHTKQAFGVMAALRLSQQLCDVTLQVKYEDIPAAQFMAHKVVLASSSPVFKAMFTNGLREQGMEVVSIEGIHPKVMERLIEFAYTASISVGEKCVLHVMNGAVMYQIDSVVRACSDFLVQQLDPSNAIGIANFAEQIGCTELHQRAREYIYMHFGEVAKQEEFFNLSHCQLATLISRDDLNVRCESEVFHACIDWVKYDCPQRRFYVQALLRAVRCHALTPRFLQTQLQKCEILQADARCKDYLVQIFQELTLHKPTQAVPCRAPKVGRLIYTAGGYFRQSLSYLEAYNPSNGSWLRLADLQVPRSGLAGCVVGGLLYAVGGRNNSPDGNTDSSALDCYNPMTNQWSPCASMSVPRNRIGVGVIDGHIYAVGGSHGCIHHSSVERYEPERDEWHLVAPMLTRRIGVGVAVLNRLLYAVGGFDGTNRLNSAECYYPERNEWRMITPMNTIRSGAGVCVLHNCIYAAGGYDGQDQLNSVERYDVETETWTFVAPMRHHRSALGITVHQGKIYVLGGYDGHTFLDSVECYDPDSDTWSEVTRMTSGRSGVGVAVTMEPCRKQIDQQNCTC
His‐Keap1 SQ/AA (Q9Z2X8, form named): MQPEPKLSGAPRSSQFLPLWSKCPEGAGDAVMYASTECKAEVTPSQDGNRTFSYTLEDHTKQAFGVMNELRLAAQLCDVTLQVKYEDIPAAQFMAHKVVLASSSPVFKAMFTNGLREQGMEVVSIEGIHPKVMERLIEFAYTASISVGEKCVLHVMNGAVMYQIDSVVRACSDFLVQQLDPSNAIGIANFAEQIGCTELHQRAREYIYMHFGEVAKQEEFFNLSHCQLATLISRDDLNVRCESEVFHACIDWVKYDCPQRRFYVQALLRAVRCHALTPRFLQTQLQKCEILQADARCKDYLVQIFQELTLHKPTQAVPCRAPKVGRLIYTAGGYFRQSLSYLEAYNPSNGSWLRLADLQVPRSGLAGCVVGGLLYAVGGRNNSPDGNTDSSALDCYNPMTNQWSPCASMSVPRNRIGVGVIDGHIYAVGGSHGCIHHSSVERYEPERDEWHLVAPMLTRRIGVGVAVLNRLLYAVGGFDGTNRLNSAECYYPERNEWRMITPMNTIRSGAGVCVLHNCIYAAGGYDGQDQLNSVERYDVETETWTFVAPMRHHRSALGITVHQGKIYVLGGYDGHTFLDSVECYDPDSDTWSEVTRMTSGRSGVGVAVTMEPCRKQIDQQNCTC
UniProt P11142: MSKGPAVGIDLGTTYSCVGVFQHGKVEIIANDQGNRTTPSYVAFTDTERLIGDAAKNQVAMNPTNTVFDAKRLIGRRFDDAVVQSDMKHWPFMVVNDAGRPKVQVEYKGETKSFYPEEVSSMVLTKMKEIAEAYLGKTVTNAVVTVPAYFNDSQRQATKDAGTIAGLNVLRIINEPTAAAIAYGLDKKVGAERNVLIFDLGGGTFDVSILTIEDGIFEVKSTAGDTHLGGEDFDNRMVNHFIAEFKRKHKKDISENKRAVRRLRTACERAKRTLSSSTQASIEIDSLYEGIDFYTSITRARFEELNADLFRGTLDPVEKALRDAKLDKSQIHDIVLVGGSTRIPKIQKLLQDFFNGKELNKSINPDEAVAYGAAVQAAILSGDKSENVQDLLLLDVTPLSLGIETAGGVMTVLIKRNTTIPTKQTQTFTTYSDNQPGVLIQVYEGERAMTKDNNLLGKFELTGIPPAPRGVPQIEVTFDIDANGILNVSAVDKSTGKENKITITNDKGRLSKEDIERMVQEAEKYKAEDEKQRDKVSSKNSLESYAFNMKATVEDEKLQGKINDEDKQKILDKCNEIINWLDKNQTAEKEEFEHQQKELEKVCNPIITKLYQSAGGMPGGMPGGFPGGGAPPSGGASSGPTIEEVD

What was measured:
Assay in all cases: co-IP; HEK293T cells transfected with wild-type or mutated His-Keap1; IP anti-His, immunoblot with indicated antibodies (Hsc70)
[1] = target: His‐Keap1 wild‐type (expressed in HEK293T cells) (UniProt Q9Z2X8)
[2] = target: His‐Keap1 NE/AA (UniProt Q9Z2X8)
[3] = target: His‐Keap1 SQ/AA (UniProt Q9Z2X8)

binding [1]: binds
binding [2]: binds
binding [3]: binds
Substance: Hsc70, endogenous in HEK293T cells (from UniProt P11142 1-646)
